Measured values: article PMC3775767
No constants are given. Whether binding was seen depends on the method and setting. Binding seen in cells or lysates may run through a third protein. Binding calls can cover weak binding; strength is not graded here. Sequences can lack the tags named with a protein.

Biological target: T1, oxysterol-binding protein-related protein 4 (ORP4), flag-tagged (UniProt Q969R2)
T1 sequence: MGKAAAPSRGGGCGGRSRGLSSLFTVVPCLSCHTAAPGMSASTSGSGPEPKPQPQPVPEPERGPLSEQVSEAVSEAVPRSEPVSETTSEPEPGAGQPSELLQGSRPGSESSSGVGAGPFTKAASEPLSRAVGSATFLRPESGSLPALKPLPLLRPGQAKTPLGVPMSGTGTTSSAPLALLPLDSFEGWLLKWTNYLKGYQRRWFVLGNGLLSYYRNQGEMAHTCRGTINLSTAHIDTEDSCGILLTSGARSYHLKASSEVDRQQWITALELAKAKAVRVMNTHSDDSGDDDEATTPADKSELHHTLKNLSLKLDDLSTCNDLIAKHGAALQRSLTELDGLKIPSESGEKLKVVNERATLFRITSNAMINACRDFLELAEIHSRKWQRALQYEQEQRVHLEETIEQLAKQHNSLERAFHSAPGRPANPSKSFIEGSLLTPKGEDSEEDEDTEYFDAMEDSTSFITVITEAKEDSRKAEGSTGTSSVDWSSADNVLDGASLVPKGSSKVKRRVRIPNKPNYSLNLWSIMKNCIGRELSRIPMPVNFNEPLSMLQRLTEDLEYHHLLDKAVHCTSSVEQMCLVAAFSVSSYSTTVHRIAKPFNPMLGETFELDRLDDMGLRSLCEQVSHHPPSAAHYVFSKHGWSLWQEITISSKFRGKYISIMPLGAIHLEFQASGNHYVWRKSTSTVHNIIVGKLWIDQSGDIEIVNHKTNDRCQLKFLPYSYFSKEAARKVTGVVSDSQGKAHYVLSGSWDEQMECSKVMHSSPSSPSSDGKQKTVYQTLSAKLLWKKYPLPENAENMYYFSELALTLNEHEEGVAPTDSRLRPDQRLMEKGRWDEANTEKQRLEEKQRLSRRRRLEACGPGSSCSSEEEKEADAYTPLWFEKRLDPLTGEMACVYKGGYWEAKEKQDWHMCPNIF
Assay: co-IP; 293T cells transfected with flag-ORP4 plus myc-NS5B and/or HA-hVAP-A; lysates prepared 48 hr post transfection; immunoprecipitated with anti-flag antibody; Western blot with anti-myc or anti-HA antibody

HCV NS5B (RNA-dependent RNA polymerase), myc-tagged (hepatitis C virus (strain not stated)) (enzyme)
binding: binds
